{"source": "PubChem BioAssay AID686938 – Drosophila RNAi Screening Center, 2013", "purpose": "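Fly genes required for calcium entry once internal stores are emptied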 (primary screen)", "cell system": "Drosophila S2R+ cells", "reagent": "long dsRNA against Drosophila genes, about 0.25 µg dsRNA per well, roughly 10,000 cells", "time to read-out": "5 days of knock-down before the calcium assay", "conditions": "thapsigargin (SERCA pump blocker) to empty calcium stores; entry signal taken 4 min after adding it", "detection": "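Per-well fluo-4 fluorescence in two replicates, unnormalised, measured in resting cells and 4 min after store depletion by the SERCA blocker thapsigargin; ratio of the two present in few wells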", "scale": "calcium entry signal: higher = stronger calcium signal after store depletion; resting calcium signal: higher = higher resting calcium signal", "units": "calcium entry signal in fluorescence units; resting calcium signal in fluorescence units", "rule for the call": "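Hit if the duplicate-averaged plate z-score for entry over resting signal is under −3; wells with weak total dye signal (Fmax z < −2) or more than 5 off-targets removed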", "calls": "active = strongly reduced calcium entry; inactive = no strong reduction", "note": "The deposit covers about 23,000 reagents; this is an unselected part of those with a known target gene and a result. Of all reagents, 75 (0.33%) got an active call. 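Raw plate signals without normalisation; calls rest on plate z-scores that were not deposited; ratio present for only 364 wells.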 A number with no mark means an inactive call. The numbers tell different reagents against one gene apart. Names joined by + are all predicted targets of the reagent. No sequences are given here. Not given: the dose of the treatment."}
{"gene knocked down":"CG31516","dsRNA no.":1,"calcium entry signal, replicate 1":3.13e7,"calcium entry signal, replicate 2":3.56e7,"resting calcium signal, replicate 1":1.70e7,"resting calcium signal, replicate 2":1.56e7}
{"gene knocked down":"Vps13B (Vacuolar protein sorting 13B)","dsRNA no.":1,"calcium entry signal, replicate 1":4.50e7,"calcium entry signal, replicate 2":5.66e7,"resting calcium signal, replicate 1":2.25e7,"resting calcium signal, replicate 2":2.25e7}
{"gene knocked down":"CG34161","dsRNA no.":1,"calcium entry signal, replicate 1":4.23e7,"calcium entry signal, replicate 2":5.43e7,"resting calcium signal, replicate 1":2.09e7,"resting calcium signal, replicate 2":2.65e7}
{"gene knocked down":"px (plexus)","dsRNA no.":1,"calcium entry signal, replicate 1":3.70e7,"resting calcium signal, replicate 1":2.01e7}
{"gene knocked down":"px (plexus)","dsRNA no.":2,"calcium entry signal, replicate 1":4.10e7,"calcium entry signal, replicate 2":2.98e7,"resting calcium signal, replicate 1":2.32e7,"resting calcium signal, replicate 2":1.42e7}
{"gene knocked down":"CG2698","dsRNA no.":1,"calcium entry signal, replicate 1":4.99e7,"calcium entry signal, replicate 2":5.15e7,"resting calcium signal, replicate 1":2.41e7,"resting calcium signal, replicate 2":2.41e7}
{"gene knocked down":"cola + swif","dsRNA no.":1,"calcium entry signal, replicate 1":3.46e7,"calcium entry signal, replicate 2":4.02e7,"resting calcium signal, replicate 1":1.69e7,"resting calcium signal, replicate 2":1.65e7}
{"gene knocked down":"cola + swif","dsRNA no.":2,"calcium entry signal, replicate 1":3.55e7,"calcium entry signal, replicate 2":5.58e7,"resting calcium signal, replicate 1":1.61e7,"resting calcium signal, replicate 2":2.75e7}
{"gene knocked down":"CG12659","dsRNA no.":1,"calcium entry signal, replicate 1":3.58e7,"calcium entry signal, replicate 2":3.48e7,"resting calcium signal, replicate 1":1.89e7,"resting calcium signal, replicate 2":1.79e7}
{"gene knocked down":"Ino80 (INO80 complex subunit)","dsRNA no.":1,"calcium entry signal, replicate 1":3.34e7,"calcium entry signal, replicate 2":4.08e7,"resting calcium signal, replicate 1":4.93e7,"resting calcium signal, replicate 2":1.96e7}
{"gene knocked down":"Ino80 (INO80 complex subunit)","dsRNA no.":2,"calcium entry signal, replicate 1":3.33e7,"calcium entry signal, replicate 2":4.07e7,"resting calcium signal, replicate 1":3.80e7,"resting calcium signal, replicate 2":1.82e7}
{"gene knocked down":"Ino80 (INO80 complex subunit)","dsRNA no.":3,"calcium entry signal, replicate 1":3.85e7,"calcium entry signal, replicate 2":3.97e7,"resting calcium signal, replicate 1":5.23e7,"resting calcium signal, replicate 2":1.91e7}
{"gene knocked down":"CG32832","dsRNA no.":1,"calcium entry signal, replicate 1":2.61e7,"calcium entry signal, replicate 2":3.89e7,"resting calcium signal, replicate 1":1.30e7,"resting calcium signal, replicate 2":1.80e7}
{"gene knocked down":"Cep97 (Centrosomal protein 97kDa)","dsRNA no.":1,"calcium entry signal, replicate 1":4.38e7,"resting calcium signal, replicate 1":2.80e7}

Only “calcium entry signal, replicate 1”, for 2 of the entries above:
cola + swif #1	3.46e7
cola + swif #2	3.55e7
